The text below walks through data of PMC8196013.

Chains of the proteins cited; added tags and fusions are not shown. Lines headed by an entry give the natural chain unless they say otherwise; changes in a name come on top.
UniProt P0A8T7: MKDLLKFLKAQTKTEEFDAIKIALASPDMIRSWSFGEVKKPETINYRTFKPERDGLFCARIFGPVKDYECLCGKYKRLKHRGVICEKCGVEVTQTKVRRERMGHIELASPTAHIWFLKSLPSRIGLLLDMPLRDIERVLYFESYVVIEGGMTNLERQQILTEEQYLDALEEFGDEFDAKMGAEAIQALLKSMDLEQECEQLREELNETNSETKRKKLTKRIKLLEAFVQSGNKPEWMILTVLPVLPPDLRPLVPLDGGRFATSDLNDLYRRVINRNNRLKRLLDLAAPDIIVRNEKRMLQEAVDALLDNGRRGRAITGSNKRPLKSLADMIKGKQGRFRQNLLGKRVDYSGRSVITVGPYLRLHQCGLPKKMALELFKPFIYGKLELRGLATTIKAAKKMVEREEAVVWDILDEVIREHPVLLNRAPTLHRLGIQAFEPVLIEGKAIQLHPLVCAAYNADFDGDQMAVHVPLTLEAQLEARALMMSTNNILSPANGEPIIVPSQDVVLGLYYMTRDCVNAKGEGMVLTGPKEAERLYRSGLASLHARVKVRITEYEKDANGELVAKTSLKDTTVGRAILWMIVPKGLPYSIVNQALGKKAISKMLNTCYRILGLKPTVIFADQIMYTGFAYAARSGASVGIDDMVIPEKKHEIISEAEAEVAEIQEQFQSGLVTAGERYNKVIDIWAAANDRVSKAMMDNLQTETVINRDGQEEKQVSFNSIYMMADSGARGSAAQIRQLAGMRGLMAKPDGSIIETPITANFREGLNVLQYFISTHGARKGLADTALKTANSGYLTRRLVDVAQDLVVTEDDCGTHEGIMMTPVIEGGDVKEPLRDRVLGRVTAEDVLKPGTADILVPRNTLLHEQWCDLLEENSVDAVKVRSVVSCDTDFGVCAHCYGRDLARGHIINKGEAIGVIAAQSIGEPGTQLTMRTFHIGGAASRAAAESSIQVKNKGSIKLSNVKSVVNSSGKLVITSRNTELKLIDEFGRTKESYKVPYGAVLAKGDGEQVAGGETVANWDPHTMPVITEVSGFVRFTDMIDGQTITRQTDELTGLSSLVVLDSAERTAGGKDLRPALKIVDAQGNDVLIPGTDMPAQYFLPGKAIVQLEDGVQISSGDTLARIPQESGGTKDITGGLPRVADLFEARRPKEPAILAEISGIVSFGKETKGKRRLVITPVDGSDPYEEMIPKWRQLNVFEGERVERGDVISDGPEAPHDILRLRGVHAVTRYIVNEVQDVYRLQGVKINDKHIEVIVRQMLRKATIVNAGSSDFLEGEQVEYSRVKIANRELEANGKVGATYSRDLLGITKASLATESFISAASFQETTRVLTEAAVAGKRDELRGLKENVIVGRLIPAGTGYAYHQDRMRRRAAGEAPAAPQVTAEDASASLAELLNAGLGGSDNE
UniProt P0AFG8: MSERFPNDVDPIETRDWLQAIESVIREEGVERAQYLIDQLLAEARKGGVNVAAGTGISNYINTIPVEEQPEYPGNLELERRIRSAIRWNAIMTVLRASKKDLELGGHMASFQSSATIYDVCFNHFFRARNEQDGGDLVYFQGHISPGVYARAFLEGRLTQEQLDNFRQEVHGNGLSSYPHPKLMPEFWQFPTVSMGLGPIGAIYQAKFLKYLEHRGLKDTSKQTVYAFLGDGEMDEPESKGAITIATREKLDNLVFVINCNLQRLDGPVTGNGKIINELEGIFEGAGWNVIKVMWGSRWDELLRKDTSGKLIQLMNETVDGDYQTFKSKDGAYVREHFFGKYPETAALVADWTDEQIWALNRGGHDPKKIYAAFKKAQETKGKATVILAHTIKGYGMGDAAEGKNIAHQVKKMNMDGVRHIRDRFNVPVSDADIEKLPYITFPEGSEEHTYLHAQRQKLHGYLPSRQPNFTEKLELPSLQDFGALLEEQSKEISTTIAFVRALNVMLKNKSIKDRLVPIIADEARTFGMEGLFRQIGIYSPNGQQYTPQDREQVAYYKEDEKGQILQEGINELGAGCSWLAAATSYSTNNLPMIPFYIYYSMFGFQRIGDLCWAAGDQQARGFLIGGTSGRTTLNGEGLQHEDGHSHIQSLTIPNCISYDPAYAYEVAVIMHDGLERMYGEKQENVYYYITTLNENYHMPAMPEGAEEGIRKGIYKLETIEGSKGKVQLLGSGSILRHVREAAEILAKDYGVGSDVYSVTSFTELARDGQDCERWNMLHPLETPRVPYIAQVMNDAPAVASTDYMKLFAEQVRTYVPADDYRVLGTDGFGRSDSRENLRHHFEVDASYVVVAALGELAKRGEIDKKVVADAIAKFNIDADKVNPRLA
UniProt P22524: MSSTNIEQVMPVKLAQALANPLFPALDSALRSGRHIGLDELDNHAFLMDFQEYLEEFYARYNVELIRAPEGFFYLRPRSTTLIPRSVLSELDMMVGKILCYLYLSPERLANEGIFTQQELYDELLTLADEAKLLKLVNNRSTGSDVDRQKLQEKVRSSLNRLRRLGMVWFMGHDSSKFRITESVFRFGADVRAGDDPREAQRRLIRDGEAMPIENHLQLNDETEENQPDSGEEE
UniProt P60293: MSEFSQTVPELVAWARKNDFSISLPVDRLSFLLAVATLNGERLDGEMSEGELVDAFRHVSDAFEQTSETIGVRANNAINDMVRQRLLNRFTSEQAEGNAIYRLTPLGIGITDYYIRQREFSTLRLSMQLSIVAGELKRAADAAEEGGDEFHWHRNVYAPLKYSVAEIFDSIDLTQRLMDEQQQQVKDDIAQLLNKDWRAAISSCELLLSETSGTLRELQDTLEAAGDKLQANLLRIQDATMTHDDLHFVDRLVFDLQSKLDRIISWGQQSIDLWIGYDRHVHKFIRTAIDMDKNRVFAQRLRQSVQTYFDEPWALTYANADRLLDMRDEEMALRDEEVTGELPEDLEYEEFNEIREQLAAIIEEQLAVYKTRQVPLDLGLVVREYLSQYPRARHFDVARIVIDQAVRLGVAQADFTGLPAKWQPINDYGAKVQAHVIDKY
UniProt P06959: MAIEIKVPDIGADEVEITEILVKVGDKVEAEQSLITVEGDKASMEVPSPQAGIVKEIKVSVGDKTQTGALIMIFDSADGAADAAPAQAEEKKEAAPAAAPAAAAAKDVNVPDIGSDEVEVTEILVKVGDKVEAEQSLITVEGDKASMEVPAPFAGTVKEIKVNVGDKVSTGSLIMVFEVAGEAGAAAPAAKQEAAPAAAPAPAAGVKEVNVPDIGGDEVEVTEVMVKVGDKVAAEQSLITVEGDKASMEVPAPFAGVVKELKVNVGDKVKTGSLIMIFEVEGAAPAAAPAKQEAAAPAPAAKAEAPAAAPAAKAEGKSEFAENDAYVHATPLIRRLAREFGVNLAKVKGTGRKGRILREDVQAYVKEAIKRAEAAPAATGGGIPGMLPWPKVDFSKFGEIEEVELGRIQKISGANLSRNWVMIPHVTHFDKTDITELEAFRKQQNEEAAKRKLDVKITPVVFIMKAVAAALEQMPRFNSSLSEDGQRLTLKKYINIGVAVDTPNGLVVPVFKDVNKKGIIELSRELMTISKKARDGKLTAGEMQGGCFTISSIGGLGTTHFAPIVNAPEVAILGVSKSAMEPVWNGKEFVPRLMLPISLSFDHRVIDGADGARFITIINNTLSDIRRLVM
UniProt P0A717: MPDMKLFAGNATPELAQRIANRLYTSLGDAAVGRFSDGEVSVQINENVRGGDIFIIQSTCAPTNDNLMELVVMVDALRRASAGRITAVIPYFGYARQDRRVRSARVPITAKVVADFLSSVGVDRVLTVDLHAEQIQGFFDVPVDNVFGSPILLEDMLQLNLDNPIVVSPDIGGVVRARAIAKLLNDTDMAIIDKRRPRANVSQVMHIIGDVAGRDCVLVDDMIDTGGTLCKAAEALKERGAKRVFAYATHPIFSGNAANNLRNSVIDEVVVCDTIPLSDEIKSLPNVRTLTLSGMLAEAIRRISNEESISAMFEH
UniProt P0A9X4: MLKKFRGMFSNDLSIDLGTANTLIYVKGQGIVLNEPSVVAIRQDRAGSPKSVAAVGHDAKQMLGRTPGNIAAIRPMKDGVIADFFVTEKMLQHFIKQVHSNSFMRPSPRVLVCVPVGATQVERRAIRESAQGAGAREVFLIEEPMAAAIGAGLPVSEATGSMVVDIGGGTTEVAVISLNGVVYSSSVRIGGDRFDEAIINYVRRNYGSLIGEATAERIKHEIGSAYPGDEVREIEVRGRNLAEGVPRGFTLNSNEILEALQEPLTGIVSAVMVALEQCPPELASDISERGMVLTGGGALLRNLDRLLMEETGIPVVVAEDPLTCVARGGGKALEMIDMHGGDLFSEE
UniProt P60240: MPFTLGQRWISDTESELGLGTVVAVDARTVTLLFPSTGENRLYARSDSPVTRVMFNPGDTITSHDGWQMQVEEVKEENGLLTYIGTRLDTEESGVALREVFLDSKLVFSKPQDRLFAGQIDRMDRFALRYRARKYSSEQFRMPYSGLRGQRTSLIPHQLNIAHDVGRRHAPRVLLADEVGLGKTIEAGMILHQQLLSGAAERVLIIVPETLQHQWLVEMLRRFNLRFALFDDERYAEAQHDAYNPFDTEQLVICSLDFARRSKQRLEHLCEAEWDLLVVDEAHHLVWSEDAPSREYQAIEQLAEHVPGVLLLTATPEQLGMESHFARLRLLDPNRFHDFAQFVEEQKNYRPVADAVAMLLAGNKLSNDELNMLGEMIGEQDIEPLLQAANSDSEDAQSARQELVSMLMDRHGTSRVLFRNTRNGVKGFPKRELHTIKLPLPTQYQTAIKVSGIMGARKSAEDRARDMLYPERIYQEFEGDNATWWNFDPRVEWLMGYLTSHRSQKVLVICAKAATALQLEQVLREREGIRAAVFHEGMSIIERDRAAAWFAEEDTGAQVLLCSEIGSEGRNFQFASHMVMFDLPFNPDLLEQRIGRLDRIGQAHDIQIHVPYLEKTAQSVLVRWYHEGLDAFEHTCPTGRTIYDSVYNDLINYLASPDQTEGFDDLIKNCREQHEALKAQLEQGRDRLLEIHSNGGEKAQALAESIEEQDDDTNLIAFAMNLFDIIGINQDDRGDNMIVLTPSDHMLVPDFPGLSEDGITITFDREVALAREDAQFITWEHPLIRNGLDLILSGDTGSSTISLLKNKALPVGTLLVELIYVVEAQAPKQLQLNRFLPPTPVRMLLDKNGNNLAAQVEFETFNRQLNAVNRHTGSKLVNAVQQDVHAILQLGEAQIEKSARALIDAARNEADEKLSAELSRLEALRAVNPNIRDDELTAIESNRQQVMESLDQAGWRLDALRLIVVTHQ
UniProt P0A6A8: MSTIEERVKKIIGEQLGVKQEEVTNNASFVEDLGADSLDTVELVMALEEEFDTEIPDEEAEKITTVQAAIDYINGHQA
UniProt P0ACF0: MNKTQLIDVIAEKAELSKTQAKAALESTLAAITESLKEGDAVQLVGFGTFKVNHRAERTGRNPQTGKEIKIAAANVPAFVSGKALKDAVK
UniProt P0A9P0: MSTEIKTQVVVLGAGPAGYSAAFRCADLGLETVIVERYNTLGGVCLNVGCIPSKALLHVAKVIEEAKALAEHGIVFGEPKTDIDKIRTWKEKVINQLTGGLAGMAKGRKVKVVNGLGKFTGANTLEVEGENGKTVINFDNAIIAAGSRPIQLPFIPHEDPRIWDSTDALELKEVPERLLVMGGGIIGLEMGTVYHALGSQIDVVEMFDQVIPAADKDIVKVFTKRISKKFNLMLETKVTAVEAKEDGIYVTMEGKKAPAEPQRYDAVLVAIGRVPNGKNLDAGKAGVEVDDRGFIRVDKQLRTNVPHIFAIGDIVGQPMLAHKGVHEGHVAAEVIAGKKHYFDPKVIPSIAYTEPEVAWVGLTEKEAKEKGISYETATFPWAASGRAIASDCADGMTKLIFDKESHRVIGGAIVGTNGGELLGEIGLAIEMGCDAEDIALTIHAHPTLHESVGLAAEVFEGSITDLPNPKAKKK
UniProt P0A7Z4: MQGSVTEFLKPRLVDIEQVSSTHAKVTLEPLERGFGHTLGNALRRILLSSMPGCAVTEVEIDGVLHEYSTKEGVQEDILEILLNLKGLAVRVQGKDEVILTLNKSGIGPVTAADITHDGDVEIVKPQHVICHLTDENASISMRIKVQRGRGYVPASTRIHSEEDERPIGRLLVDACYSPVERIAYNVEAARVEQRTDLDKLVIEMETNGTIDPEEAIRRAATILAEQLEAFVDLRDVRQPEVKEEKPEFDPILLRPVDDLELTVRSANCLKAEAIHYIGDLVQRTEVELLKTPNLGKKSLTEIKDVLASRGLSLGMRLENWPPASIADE

No constants are given. Whether binding was seen depends on the method and setting. For some of these results: In cells and extracts the contact can be indirect. Some results given as binding are weak or reduced against the parent protein; the word gives no strength.

In assay [1] the target is rpoC (E. coli K12 (endogenous in the lysate)) (UniProt P0A8T7). Put plainly: cross-linking; sulfo-SDA (50-1000 µM, 2 h on ice, UV 365 nm) on the TEV eluates of the YacL-SPA, RpoB-SPA and NusG-SPA enrichments; LC-MS; 2% residue pair FDR, 5% PPI FDR.
Assay [2] concerns the target GroEL (E. coli K12 (endogenous in the lysate)) (UniProt P0A6F5). In words: cross-linking; BS3 or DSSO (0.75 mM, 2 h on ice) in the single SEC fractions of E. coli K12 lysate, fractions pooled, LC-MS; PPIs at 1% heteromeric PPI-FDR.
Assay [3] deals with aceE (E. coli K12 (endogenous in the lysate)) (UniProt P0AFG8). The assay is described as above.
Assay [4] has as its target RpoB-SPA (E. coli K12) (UniProt P0A8V2). Put plainly: cross-linking; sulfo-SDA (50-1000 µM, 2 h on ice, UV 365 nm) on the TEV eluates of the YacL-SPA, RpoB-SPA and NusG-SPA enrichments; LC-MS; 2% residue pair FDR, 5% PPI FDR.
For assay [5], the target named is rpoB (E. coli K12 (endogenous in the lysate)) (UniProt P0A8V2). The assay is described as above.
For assay [6], the target named is rpoC (E. coli K12 (endogenous in the lysate)) (UniProt P0A8T7). In words: cross-linking; BS3 or DSSO (0.75 mM, 2 h on ice) in the single SEC fractions of E. coli K12 lysate, fractions pooled, LC-MS; PPIs at 1% heteromeric PPI-FDR.
The target in assay [7] is T1, MukBEF complex (E. coli K12 (endogenous in the lysate)) (UniProt P22523+P22524+P60293). Put plainly: SEC; E. coli K12 lysate on a BioSep SEC-S4000 column at 4 °C, 44 fractions; elution profile of each protein by label-free quantitative MS (iBAQ); coelution.
Assay [8] deals with T1, MukBEF complex (E. coli K12 (endogenous in the lysate)). In words: cross-linking; BS3 or DSSO (0.75 mM, 2 h on ice) in the single SEC fractions of E. coli K12 lysate, fractions pooled, LC-MS; PPIs at 1% heteromeric PPI-FDR.
Assay [9] concerns the target aceF (E. coli K12 (endogenous in the lysate)) (UniProt P06959). The description is as above.
The target of assay [10] is T2, sucB (E. coli K12 (endogenous in the lysate)) (UniProt P0AFG6).
T2 sequence: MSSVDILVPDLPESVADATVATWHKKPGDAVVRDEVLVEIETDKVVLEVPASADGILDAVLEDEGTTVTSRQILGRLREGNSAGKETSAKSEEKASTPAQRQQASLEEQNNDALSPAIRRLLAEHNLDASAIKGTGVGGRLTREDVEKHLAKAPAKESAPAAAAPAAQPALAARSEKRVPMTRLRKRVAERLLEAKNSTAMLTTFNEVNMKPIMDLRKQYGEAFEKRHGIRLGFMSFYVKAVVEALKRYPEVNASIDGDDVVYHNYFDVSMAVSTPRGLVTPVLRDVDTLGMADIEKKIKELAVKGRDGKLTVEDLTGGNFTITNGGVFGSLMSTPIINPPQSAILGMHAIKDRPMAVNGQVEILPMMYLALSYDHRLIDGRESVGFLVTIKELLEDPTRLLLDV
Described as above.

Assay [11] addresses T3, sucA (E. coli K12 (endogenous in the lysate)) (UniProt P0AFG3).
T3 sequence: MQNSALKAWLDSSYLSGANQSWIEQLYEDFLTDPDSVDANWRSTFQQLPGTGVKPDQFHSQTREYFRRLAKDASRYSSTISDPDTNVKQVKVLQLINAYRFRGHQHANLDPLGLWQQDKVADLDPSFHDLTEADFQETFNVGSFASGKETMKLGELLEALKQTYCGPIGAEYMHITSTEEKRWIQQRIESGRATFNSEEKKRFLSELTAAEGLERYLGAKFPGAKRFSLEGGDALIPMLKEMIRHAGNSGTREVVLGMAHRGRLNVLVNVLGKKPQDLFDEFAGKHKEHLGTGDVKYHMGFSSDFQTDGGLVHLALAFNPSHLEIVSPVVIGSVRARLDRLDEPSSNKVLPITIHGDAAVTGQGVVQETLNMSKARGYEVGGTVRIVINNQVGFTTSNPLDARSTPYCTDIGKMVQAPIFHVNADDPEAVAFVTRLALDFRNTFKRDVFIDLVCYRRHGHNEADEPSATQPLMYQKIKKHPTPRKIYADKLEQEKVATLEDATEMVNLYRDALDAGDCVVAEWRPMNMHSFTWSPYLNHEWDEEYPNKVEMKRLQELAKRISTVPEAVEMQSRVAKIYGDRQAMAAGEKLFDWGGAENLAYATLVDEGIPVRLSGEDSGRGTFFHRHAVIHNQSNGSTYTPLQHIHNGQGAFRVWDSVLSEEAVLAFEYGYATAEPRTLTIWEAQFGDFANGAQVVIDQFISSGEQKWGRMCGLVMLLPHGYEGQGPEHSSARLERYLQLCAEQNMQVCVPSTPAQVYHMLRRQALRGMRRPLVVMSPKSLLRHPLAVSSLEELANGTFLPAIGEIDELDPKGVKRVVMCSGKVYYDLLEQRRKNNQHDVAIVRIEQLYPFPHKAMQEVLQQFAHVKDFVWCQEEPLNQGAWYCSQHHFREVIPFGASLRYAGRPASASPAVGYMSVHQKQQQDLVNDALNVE
The assay is described as above.

Assay [12] deals with aceF (E. coli K12 (endogenous in the lysate)) (UniProt P06959). In words: SEC; E. coli K12 lysate on a BioSep SEC-S4000 column at 4 °C, 44 fractions; elution profile of each protein by label-free quantitative MS (iBAQ); coelution. A general note: Size exclusion chromatography separates by hydrodynamic size, large species first.
Assay [13] addresses T2, sucB (E. coli K12 (endogenous in the lysate)). The assay is described as above.
In assay [14] the target is T3, sucA (E. coli K12 (endogenous in the lysate)). Described as above.
Assay [15] has as its target aceE (E. coli K12 (endogenous in the lysate)) (UniProt P0AFG8). The assay is described as above.
For assay [16], the target named is MukBEF (E. coli K12 (endogenous in BW25113)) (UniProt P22523+P22524+P60293). In words: cross-linking; BS3 or DSSO (0.75 mM, 2 h on ice) in each of 44 SEC fractions of E. coli K12 BW25113 lysate, fractions pooled, digested, SCX and hSAX fractionation, LC-MS; PPIs at 1% heteromeric decoy-based PPI-FDR.

With prS (from UniProt P0A717 1-315), the binding result in [1] is “binds”.
mreB (from UniProt P0A9X4 1-347): the binding result in [2] was “binds”.
For the substance aceF (from UniProt P06959 1-630), the binding entry in [3] is “binds”.
Consider RapA (from UniProt P60240 1-968), for which the binding result in assay [1], in [4], in [5] and in assay [6] was “binds” each time.
Consider AcpP (from UniProt P0A6A8 1-78), for which the binding entry in assay [7] is recorded as “binds”.
With hupA (from UniProt P0ACF0 1-90), the binding entry in assay [8] is given as “binds”.
For the substance lpdA (from UniProt P0A9P0 1-474), the binding entry in assay [9], in assay [10], in [11], in assay [3], in [12] and in [13] was “binds” in each case. Further, the binding result in assay [14] and in assay [15] was “binds” each time.
For the substance “acyl carrier protein (from UniProt P0A6A8 1-78)”, the binding entry in assay [16] is listed as “binds”.
Take rpoA (from UniProt P0A7Z4 1-329): in [2], the binding result was “binds”.
